From paper PMC8915576 (Frontiers in Pain Research, 2021)

Tested on: MOPr-VACC inhibition in dorsal root ganglia (DRG) neurons
Experiment: cells
Type: cell-based
Conditions: Mus musculus, DRG neuron, read-out: IC50, VACC inhibition

SMILES: CN1CC[C@]23c4c5ccc(O)c4O[C@H]2[C@@H](O)C=C[C@H]3[C@H]1C5 [Morphine, morphine]
- IC50: 0.688 µM
